One molecule from article PMC6104087, “Structural basis for membrane tethering by a bacterial dynamin-like pair” (Nature Communications, 2018) can be followed below.

Results are given in words; binding and its absence hold for the method and conditions named.

The assay deals with Cj-DLP1 (Campylobacter jejuni). The assay can be described thus: SEC-MALS; individual proteins; 100 μl at 1–2 mg/ml on Superdex 200 10/300 GL in TEN 7.5 (20 mM Tris pH 7.5, 1 mM EDTA, 1 mM sodium azide), 1 mM DTT; both purified. On the technique in general: SEC sorts molecules by how far they enter the pores of the column.

B1: Cj-DLP1 (natural protein, Campylobacter jejuni, UniProt A0A0H3PJL7 1-728, looked up)
chain: MKELFQKIWQNELQFLNFDAKFQDKSKLDTAECAIILSVNKDNYERYFLLKEFQELCKKIDLRVDIFSMQNAQICILNLFKSGFISKQDLLKALKILEKISKNTEIFDFILQEKVQSIDQKALFQNDFKELNTINLELQKLSFDENLKSRLQKTLEKFQNLEFNIAITGVMNAGKSSLLNALLKEDFLGVSNIPETANLTVLSYGKSEEAKIYFWDKKEWQNILESSHFNADLKEFIDKLDKSVNIEDFIKDKPLIQNIALCELKNFSSAKNKISALIKKIEIKSHLEFLKNNISIVDTPGLDDVVVQREIVTNEYLRESDFLIHLMNASQSLTQKDADFLVHCLLNSRLSKFLIVLTKADLLSKKDLEEVIVYTKESLKSRLVDLDENLVEKIDFLCVSAKMASDFYKGLASKESLQKSGMQEFENYLFNELYAGEKSKIALRAYKKELHLELKNILSEYEMQNRLIKENKQGVSEENQKLLLELQKQNTLLKEAQDEISNSIAKLKNIDSGIDNLVLLLAKKLKERLIDEFKYLKNNAQKLNLSRILNIVDITTKDGINDILREIKFENIKKIEELKTNLSLKYDFLKDDFDNGFEGFKDGISKNIDSIFQSEKFALLRLKIEKLSNLKSDLYELETNLDTVIFDTFKEFKMSEILNSLNINGAFFEFLNDKLKHYEKNQKSKLESLEKVLQSLKNQDANILNSFEENLEKIEKLKQLEMGLLNAD
notes: Cj-DLP1, dynamin-like protein of Campylobacter jejuni, gene cj0411, full-length protein, 84.5 kDa; Monomer alone; Two copies stand in the 2:2 tetramer with Cj-DLP2; also called cj0411; CJ0411; source: E. coli BL21 (DE3), purified (HisTrap, gel filtration)
With B1, the binding entry is given as “no binding (tested: 100 μl at 1–2 mg/ml injected)”.
